Results are given in words; binding and its absence hold for the method and conditions named. Binding seen in cells or lysates may run through a third protein. These calls come from enrichment with a bait or labelling near it, and not all partners need be listed.
Target: pIgR-BirA* (human) (UniProt P01833)
Test: proximity labelling; BioID: HEK293T cells expressing pIgR-BirA*, 50 µM biotin; NP-40 lysis; biotin-labelled proteins enriched on streptavidin agarose beads; mass spectrometry and immunoblotting

Protein sequences, listed by entry. Tags and fused reporters are not part of them. Residues count along the entry.
UniProt P01833, residues 19-764: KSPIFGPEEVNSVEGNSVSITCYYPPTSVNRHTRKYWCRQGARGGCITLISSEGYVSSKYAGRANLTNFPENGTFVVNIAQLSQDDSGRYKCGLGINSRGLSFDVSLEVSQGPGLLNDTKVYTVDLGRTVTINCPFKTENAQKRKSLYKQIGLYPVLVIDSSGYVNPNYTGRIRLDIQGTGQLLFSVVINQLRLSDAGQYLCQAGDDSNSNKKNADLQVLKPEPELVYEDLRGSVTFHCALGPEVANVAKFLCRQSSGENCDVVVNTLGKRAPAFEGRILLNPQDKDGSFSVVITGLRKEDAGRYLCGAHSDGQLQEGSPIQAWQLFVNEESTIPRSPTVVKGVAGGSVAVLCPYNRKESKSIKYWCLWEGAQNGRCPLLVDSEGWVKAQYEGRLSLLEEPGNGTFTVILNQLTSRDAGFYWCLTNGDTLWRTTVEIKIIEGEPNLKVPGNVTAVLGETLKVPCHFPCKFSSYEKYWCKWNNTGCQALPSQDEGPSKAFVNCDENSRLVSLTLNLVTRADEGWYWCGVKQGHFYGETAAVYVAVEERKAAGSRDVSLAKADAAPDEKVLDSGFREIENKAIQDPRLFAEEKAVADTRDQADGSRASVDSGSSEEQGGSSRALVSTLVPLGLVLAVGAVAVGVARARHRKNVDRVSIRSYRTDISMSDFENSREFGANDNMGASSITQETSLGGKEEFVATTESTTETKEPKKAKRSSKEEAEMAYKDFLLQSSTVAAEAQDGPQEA

- binding: binds
B1: Rab11-FIP1, endogenous in HEK293T cells (protein, UniProt Q6WKZ4 1-1283)
chain: MSLMVSAGRGLGAVWSPTHVQVTVLQARGLRAKGPGGTSDAYAVIQVGKEKYATSVSERSLGAPVWREEATFELPSLLSSGPAAAATLQLTVLHRALLGLDKFLGRAEVDLRDLHRDQGRRKTQWYKLKSKPGKKDKERGEIEVDIQFMRNNMTASMFDLSMKDKSRNPFGKLKDKIKGKNKDSGSDTASAIIPSTTPSVDSDDESVVKDKKKKSKIKTLLSKSNLQKTPLSQSMSVLPTSKPEKVLLRPGDFQSQWDEDDNEDESSSASDVMSHKRTASTDLKQLNQVNFTLPKKEGLSFLGGLRSKNDVLSRSNVCINGNHVYLEQPEAKGEIKDSSPSSSPSPKGFRKKHLFSSTENLAAGSWKEPAEGGGLSSDRQLSESSTKDSLKSMTLPSYRPAPLVSGDLRENMAPANSEATKEAKESKKPESRRSSLLSLMTGKKDVAKGSEGENPLTVPGREKEGMLMGVKPGEDASGPAEDLVRRSEKDTAAVVSRQGSSLNLFEDVQITEPEAEPESKSEPRPPISSPRAPQTRAVKPRLEVSPEAQPTARLPSPTDSPSSLPPLPSSSGQASVPSELGHGADTQSSESPSVFSSLSSPIAAPISTSTPIESWPLVDRGQAKSEGPPLLPKAELQTESLTPVPNSGSSALGSLFKQPSFPANKGTEDSLMGRTRETGTEKNTSSLELEESLPEQPETGRQEEELPRFPCKKQDYSPSSGEAQEVPFALSLSSDGAVSPVGELAAGGDRDLESQAGSLVESKARDAAEEVAPPLPMGASVPSIDSMMRKLEEMGLNLRKDQKKTKKRVSFSEQLFTEEAVAGAALLVEGHSSCPQELNPAWSVAGNASDGEPPESPHAEDSERESVTTPGPATCGAPASPADHLLLPSQEESFSEVPMSEASSAKDTPLFRMEGEDALVTQYQSKASDHEGLLSDPLSDLQLVSDFKSPIMADLNLSLPSIPEVASDDERIDQVEDDGDQVEDDGETAKSSTLDIGALSLGLVVPCPERGKGPSGEADRLVLGEGLCDFRLQAPQASVTAPSEQTTEFGIHKPHLGKSSSLDKQLPGPSGGEEEKPMGNGSPSPPPGTSLDNPVPSPSPSEIFPVTHSFPSSAHSDTHHTSTAESQKKATAEGSAGRVENFGKRKPLLQAWVSPSETHPVSAQPGAGTGSAKHRLHPVKPMNAMATKVANCSLGTATIISENLNNEVMMKKYSPSDPAFAYAQLTHDELIQLVLKQKETISKKEFQVRELEDYIDNLLVRVMEETPNILRIPTQVGKKAGKM
modifications: biotin (labelled by pIgR-BirA*)
